Laboratory results as given in article PMC7616163.
These are yes or no findings as the source states them, for the method shown. Binding seen in cells or lysates may run through a third protein. Some binding calls cover weakened binding; strength is not graded here.

The chains behind the UniProt entries cited, without tags or fusion partners.
UniProt P08173: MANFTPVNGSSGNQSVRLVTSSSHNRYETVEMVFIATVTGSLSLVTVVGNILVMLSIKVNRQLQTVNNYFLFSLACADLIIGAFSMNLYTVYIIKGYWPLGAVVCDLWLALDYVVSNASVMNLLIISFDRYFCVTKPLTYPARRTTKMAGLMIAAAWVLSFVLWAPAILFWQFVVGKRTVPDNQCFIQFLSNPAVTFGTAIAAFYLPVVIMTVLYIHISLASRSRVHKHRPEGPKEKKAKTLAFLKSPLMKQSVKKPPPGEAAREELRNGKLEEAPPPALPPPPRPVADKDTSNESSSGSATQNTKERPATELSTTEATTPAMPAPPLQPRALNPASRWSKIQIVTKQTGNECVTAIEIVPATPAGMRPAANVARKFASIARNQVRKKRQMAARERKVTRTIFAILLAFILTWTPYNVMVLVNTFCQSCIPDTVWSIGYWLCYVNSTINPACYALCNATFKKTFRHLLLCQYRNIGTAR
UniProt P32121: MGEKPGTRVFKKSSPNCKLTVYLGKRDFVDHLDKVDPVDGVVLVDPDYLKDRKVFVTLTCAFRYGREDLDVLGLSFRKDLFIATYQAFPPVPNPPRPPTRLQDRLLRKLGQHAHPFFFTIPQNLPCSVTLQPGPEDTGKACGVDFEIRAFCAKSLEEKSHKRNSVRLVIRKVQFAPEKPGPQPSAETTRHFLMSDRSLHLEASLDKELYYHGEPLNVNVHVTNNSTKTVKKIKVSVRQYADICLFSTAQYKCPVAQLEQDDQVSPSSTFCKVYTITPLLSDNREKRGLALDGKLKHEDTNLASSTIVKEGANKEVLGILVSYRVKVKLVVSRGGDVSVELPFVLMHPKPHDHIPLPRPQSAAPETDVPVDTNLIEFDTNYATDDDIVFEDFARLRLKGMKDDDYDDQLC

Target: human M4 mAChR-Rluc8 (human) (UniProt P08173)
Assay: FRET or BRET; FlpInCHO cells transiently co-expressing M4 mAChR-Rluc8 and β-arrestin-2-eYFP; HBSS pH 7.4; coelenterazine h 5 μM; ACh and PAMs co-added for 5 min at 37 °C; read on LUMIstar Omega

Question: With “β-arrestin-2-eYFP (from UniProt P32121 1-409)” as the substance, how does the binding read?
Answer: binds
